# Where a name gives a salt, the structure may show the parent alone. Some of the results follow. Most entries show no effect beyond the scatter of the controls. Where a SMILES comes first, the peptide text is derived from it. [ ]: non-standard residue; d: D form. The star is where a group is joined. Dolaproine = CO[C@@H]([C@@H]1CCCN1)[C@@H](C)C(=O)O; Dil = CC[C@H](C)[C@H](NC)[C@@H](CC(=O)O)OC; X2 = C[C@@H](N*)[C@@H](O)c1ccccc1; NMeV = CN[C@H](C(=O)O)C(C)C
# Test system: hPSC-derived cortical neurons (WA09)
# Assay: nucleus roundness z-score vs screen plate; higher = rounder nuclei (more mature)
# Details: 5 µM; treatment: days 7-14 after plating, readout day 21
row,SMILES,nucleus roundness z-score
1,CC[C@H](C)[C@@H]([C@@H](CC(=O)N1CCC[C@H]1[C@H](OC)[C@@H](C)C(=O)N[C@H](C)[C@@H](O)c1ccccc1)OC)N(C)C(=O)[C@@H](NC(=O)[C@@H](NC)C(C)C)C(C)C [Monomethyl auristatin E (MMAE)] (H-[NMeV]V[Dil][Dolaproine]-X2),-3.37
2,N=C(N)NN [Aminoguanidine hydrochloride],-0.329
3,Nc1nc(N)nc(NC2CC2)n1 [Cyromazine],0.402

# Test system: hPSC-derived cortical neurons (WA09)
# Assay: KCl-induced FOS+/EGR-1+ double-positive nuclei fraction z-score (KCl minus unstimulated); higher = stronger activity-induced IEG response
# Details: 5 µM; treatment: days 7-14 after plating, readout day 21
row,SMILES,KCl-induced FOS+/EGR-1+ double-positive nuclei fraction z-score
1,CC(=O)OC1CN2CCC1CC2 (stereo not given) [Aceclidine HCl],0.291
2,COc1ccc2c(c1)/C(=C/c1cnc[nH]1)C(=O)N2,-0.272
3,C=CCN1CC[C@]23c4c5ccc(O)c4O[C@H]2C(=O)CC[C@@]3(O)[C@H]1C5 [Naloxone HCl Dihydrate],0.835
4,C[C@]12N[C@H](Cc3ccccc31)c1ccccc12 [MK-801 (Dizocilpine)],-0.321
5,CCC(COC(=O)c1cc(OC)c(OC)c(OC)c1)(c1ccccc1)N(C)C (stereo not given) [Trimebutine],0.378
6,CC1(C)CC(O)CC(C)(C)N1[O] [Tempol],-0.387
7,O=C(CC1NCCCC1O)Cn1cnc2cc(Br)c(Cl)cc2c1=O (stereo not given) [Halofuginone],2.69
8,O=C(O[C@H]1C[N+]2(CCCOc3ccccc3)CCC1CC2)C(O)(c1cccs1)c1cccs1 [Aclidinium Bromide],-0.0694
9,COc1cc(C)[nH]c(=O)c1CNC(=O)c1c(C)n([C@H](C)C2CCOCC2)c2ccccc12,0.0151
10,Nc1ncnc2c1ccn2[C@@H]1O[C@H](CO)[C@@H](O)[C@H]1O [Tubercidin],-1.3
11,C/C=C(\C)C(=O)N[C@@H](c1ccccc1)[C@@H](O)C(=O)O[C@H]1C[C@@]2(O)[C@@H](OC(=O)c3ccccc3)[C@@H]3[C@]4(OC(C)=O)CO[C@@H]4C[C@H](O)[C@@]3(C)C(=O)[C@H](OC(C)=O)C(=C1C)C2(C)C [Cephalomannine],-0.617
12,COc1ccc(C(=O)N2CCCC2=O)cc1 [Aniracetam],2.03
13,NC(=O)c1cc(N2CC2)c([N+](=O)[O-])cc1[N+](=O)[O-],-0.0616
14,C[C@H]1CNCCc2ccc(Cl)cc21 [Lorcaserin HCl],1.67
15,C#C[C@]1(O)C=C[C@H]2[C@@H]3CCC4=CC(=O)CC[C@@H]4[C@H]3CC[C@@]21CC [Gestodene],-0.219
16,C=C[C@H]1CN2CC[C@H]1C[C@H]2[C@H](O)c1ccnc2ccccc12 [Cinchonidine],0.306

row,SMILES,KCl-induced FOS+/EGR-1+ double-positive nuclei fraction z-score
2,COC1=C[C@@H]2[C@@H]3Cc4ccc(OC)c(O)c4[C@]2(CCN3C)CC1=O [Sinomenine],0.78
3,COc1cc2c(cc1OC)C1CC(=O)C(CC(C)C)CN1CC2 (stereo not given) [Tetrabenazine (Xenazine)],1.55
4,Cc1cccc([C@H](C)c2c[nH]cn2)c1C [Dexmedetomidine],2.11
5,[O-][n+]1ccccc1[S-].[O-][n+]1ccccc1[S-].[Zn+2] [Zinc Pyrithione],-0.277
6,Cn1c(CCCC(=O)O)nc2cc(N(CCCl)CCCl)ccc21 [Bendamustine HCl],0.477
7,C=C1C[C@@H]2[C@H](CC[C@]3(C)C(=O)CC[C@@H]23)[C@@]2(C)C=CC(=O)C=C12 [Exemestane],1.66
8,Cc1cccc(Cc2c[nH]cn2)c1C [Detomidine HCl],0.368
9,CC(C)N(CCC(C(N)=O)(c1ccccc1)c1ccccn1)C(C)C (stereo not given) [Disopyramide Phosphate],-0.512
10,NCC(O)c1ccc(O)cc1 (stereo not given) [(+_-)-Octopamine HCl],0.284
11,CCC1(C)CC(=O)NC(=O)C1 [Bemegride],-0.0953
12,N#C[C@H](O[C@@H]1O[C@H](C(=O)O)[C@@H](O)[C@H](O)[C@H]1O)c1ccccc1 [Laetrile],-0.938
13,CC(C)=CCC[C@]1(C)C=Cc2c(O)c3c(c(CC=C(C)C)c2O1)O[C@]12C(=C[C@@H]4C[C@H]1C(C)(C)O[C@@]2(C/C=C(/C)C(=O)O)C4=O)C3=O [Gambogic Acid],-0.834
14,CCOC(=O)c1cncn1[C@H](C)c1ccccc1 [Etomidate],-0.314
15,Cc1ccc(-n2nccn2)c(C(=O)N2CCN(c3nc4cc(Cl)ccc4o3)CC[C@H]2C)c1 [Suvorexant (MK-4305)],-0.777
16,CC[C@@]1(O)C(=O)OCc2c1cc1n(c2=O)Cc2cc3ccccc3nc2-1 [Camptothecin],-1.19

# Copied from the list:
# Entry of CCC1(C)CC(=O)NC(=O)C1 [Bemegride] under KCl-induced FOS+/EGR-1+ double-positive nuclei fraction z-score: -0.0953
# Entry of CC(C)=CCC[C@]1(C)C=Cc2c(O)c3c(c(CC=C(C)C)c2O1)O[C@]12C(=C[C@@H]4C[C@H]1C(C)(C)O[C@@]2(C/C=C(/C)C(=O)O)C4=O)C3=O [Gambogic Acid] under KCl-induced FOS+/EGR-1+ double-positive nuclei fraction z-score: -0.834

# Reference: the supplement of paper PMC11348887
